PubChem BioAssay AID652259 | Drosophila RNAi Screening Center | 2013
Aim: 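Genome-wide hunt for genes that control Wingless pathway activity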 (primary screen). System: Drosophila clone 8 imaginal disc epithelial cells. Knock-down reagent: long dsRNA against Drosophila genes. Conditions: pathway stimulated by co-transfected Wingless expression plasmid. Measurement: 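Dual luciferase reads per well after Wingless plasmid stimulation: reporter firefly light and Renilla control light; activity is firefly divided by Renilla, a ratio not deposited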. Direction: firefly reporter light: higher = more Wg reporter light, before normalisation; Renilla control light: higher = more transfected or surviving cells. Call rule: 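a knock-down is a candidate when at least two out of four statistical tests show it departing from its plate mean; one test alone signals a weak candidate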. Calls: active = candidate regulator (raises or lowers reporter); inactive = not a candidate.
In all, the deposit lists about 22,000 reagents; shown is an unselected part of those that have a named target and a result. Over the whole deposit, 233 (1.1%) are marked active. 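Light values are raw, unnormalised plate reads; the ratio scores behind the reporter calls were not deposited.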 Names joined by + are all predicted targets of the reagent. Not stated in the record: the amount of reagent, the time to read-out, the dose of the treatment.

| predicted target | dsRNA | reporter change call, replicate 1 | firefly reporter light, replicate 1 | firefly reporter light, replicate 2 | Renilla control light, replicate 1 | Renilla control light, replicate 2 | call |
| --- | --- | --- | --- | --- | --- | --- | --- |
| CG42700 (GeneID 36330) | DRSC06292 | – | 5272 | – | 619 | – | inactive |
| CG42700 (GeneID 36330) | DRSC06293 | – | 8252 | – | 3443 | – | inactive |
| CCT3 (GeneID 42029) | DRSC16602 | – | 3255 | 7314 | 1568 | 2118 | inactive |
| mRpL46 (GeneID 38230) | DRSC08391 | – | 6720 | – | 2625 | – | inactive |
| Pgant9 (GeneID 246627) | DRSC05621 | – | 19440 | – | 9050 | – | inactive |
| Pgant9 (GeneID 246627) | DRSC06584 | – | 9288 | – | 2699 | – | inactive |
| Pgant9 (GeneID 246627) | DRSC07185 | – | 10199 | – | 3057 | – | inactive |
| Pgant9 (GeneID 246627) | DRSC07186 | – | 11148 | – | 4168 | – | inactive |
| Pgant9 (GeneID 246627) | DRSC07187 | – | 9412 | – | 3334 | – | inactive |
| Pgant9 (GeneID 246627) | DRSC07189 | – | 7512 | – | 2541 | – | inactive |
| Pgant9 (GeneID 246627) | DRSC21807 | – | 6.76e5 | 6.59e5 | 3.41e5 | 2.38e5 | inactive |
| Pgant9 (GeneID 246627) | DRSC22076 | – | 9.49e5 | 9.06e5 | 4.58e5 | 4.91e5 | inactive |
| Noa36 (GeneID 43384) | DRSC16761 | – | 1720 | 7419 | 957 | 2844 | inactive |
| thoc7 (GeneID 38033) | DRSC08512 | – | 10242 | – | 2669 | – | inactive |
| CG10005 (GeneID 41451) | DRSC14172 | – | 15872 | – | 3836 | – | inactive |
| Marcal1 (GeneID 33709) | DRSC02718 | Wg reporter activity lowered | 1404 | 3949 | 901 | 1712 | active |
| CG34174 (GeneID 5740699) | DRSC00101 | – | 18071 | – | 13241 | – | inactive |
| Spn53F (GeneID 36931) | DRSC06022 | – | 5576 | – | 2304 | – | inactive |
| Rbf (GeneID 31027) | DRSC18704 | – | 2640 | 5878 | 1205 | 2208 | inactive |
| peo (GeneID 47272) | DRSC05995 | – | 7969 | – | 1877 | – | inactive |
| CG12682 (GeneID 31415) | DRSC17873 | – | 15899 | – | 7868 | – | inactive |
| CG10953 (GeneID 36941) | DRSC06021 | – | 9425 | – | 3155 | – | inactive |
| CG6497 (GeneID 39924) | DRSC10654 | – | 11367 | – | 4155 | – | inactive |
| CG6497 (GeneID 39924) | DRSC21469 | – | 9.41e5 | 9.76e5 | 5.61e5 | 4.96e5 | inactive |
| CG5805 (GeneID 42950) | DRSC15878 | – | 3061 | 4512 | 1526 | 1734 | inactive |
| Myo61F (GeneID 38153) | DRSC22144 | – | 3.42e5 | 4.18e5 | 1.75e5 | 1.83e5 | inactive |
| l(2)k09913 (GeneID 37661) | DRSC04699 | – | 8842 | – | 2288 | – | inactive |
| CG4332 (GeneID 32267) | DRSC19890 | – | 2605 | 6614 | 827 | 1808 | inactive |
| Rad1 + Sws1 | DRSC00778 | – | 3152 | 8080 | 1248 | 2913 | inactive |
| Rcd4 (GeneID 34158) | DRSC02597 | – | 2632 | 7952 | 900 | 2857 | inactive |
| PIG-Q (GeneID 117366) | DRSC19138 | – | 3168 | – | 434 | – | inactive |
| CG16826 (GeneID 34741) | DRSC02527 | – | 1869 | 5364 | 1108 | 2816 | inactive |
| CG32095 (GeneID 317849) | DRSC22615 | – | 4.27e5 | 3.85e5 | 1.50e5 | 1.04e5 | inactive |
| Mnr (GeneID 33098) | DRSC20549 | – | 16005 | – | 10518 | – | inactive |
| Mnr (GeneID 33098) | DRSC20550 | – | 17612 | 7.32e5 | 11584 | 3.90e5 | inactive |
| Mnr (GeneID 33098) | DRSC22441 | – | 3.34e5 | 3.83e5 | 1.70e5 | 47901 | inactive |
| gwl (GeneID 45969) | DRSC16305 | – | 1605 | 4532 | 701 | 917 | inactive |
| pum (GeneID 41094) | DRSC12722 | – | 4021 | – | 1725 | – | inactive |
| pum (GeneID 41094) | DRSC12726 | – | 6628 | – | 1960 | – | inactive |
| pum (GeneID 41094) | DRSC17037 | – | 18396 | – | 5248 | – | inactive |
| pum (GeneID 41094) | DRSC17038 | – | 21632 | – | 5741 | – | inactive |
| pum (GeneID 41094) | DRSC22758 | – | 4.54e5 | 5.50e5 | 1.98e5 | 1.43e5 | inactive |
| pum (GeneID 41094) | DRSC22794 | – | 7.13e5 | 7.41e5 | 2.35e5 | 2.76e5 | inactive |
| cmpy (GeneID 40288) | DRSC11701 | – | 9367 | – | 3910 | – | inactive |
| CG6013 (GeneID 42286) | DRSC15947 | – | 4099 | 5189 | 1024 | 2492 | inactive |
| nkt (GeneID 39264) | DRSC10144 | – | 7224 | – | 3421 | – | inactive |
| CG30487 (GeneID 246646) | DRSC05377 | – | 20742 | – | 15879 | – | inactive |
| CG13625 (GeneID 42931) | DRSC14627 | – | 3425 | 4637 | 1224 | 1521 | inactive |
| Alas (GeneID 37815) | DRSC04044 | – | 9698 | – | 2150 | – | inactive |
| nahoda (GeneID 37641) | DRSC03954 | – | 19987 | – | 11318 | – | inactive |
| nahoda (GeneID 37641) | DRSC04126 | – | 13984 | – | 4717 | – | inactive |
| CG14507 (GeneID 43461) | DRSC14859 | – | 5560 | – | 2518 | – | inactive |
| CG34382 (GeneID 5740788) | DRSC08999 | – | 3687 | – | 1220 | – | inactive |
| CG34382 (GeneID 5740788) | DRSC10166 | – | 6369 | – | 4498 | – | inactive |
| CG34382 (GeneID 5740788) | DRSC10167 | – | 5449 | – | 3792 | – | inactive |
| CG4161 (GeneID 34907) | DRSC01930 | – | 1992 | 4784 | 1037 | 2716 | inactive |
| CG32695 (GeneID 31918) | DRSC17975 | – | 22915 | – | 14488 | – | inactive |
| Chchd2 (GeneID 32701) | DRSC19931 | – | 25832 | 6.98e5 | 13857 | 3.46e5 | inactive |
| CG33483 (GeneID 2768693) | DRSC14019 | – | 4372 | – | 1500 | – | inactive |
| Syt4 (GeneID 40876) | DRSC12606 | – | 13192 | – | 3547 | – | inactive |
| CG7058 (GeneID 32873) | DRSC20021 | – | 9152 | – | 7491 | – | inactive |
| CG10345 (GeneID 42017) | DRSC14138 | – | 4291 | 5497 | 1619 | 2093 | inactive |
| AstC-R2 (GeneID 40019) | DRSC10051 | – | 6652 | – | 3645 | – | inactive |
| CG42720 (retired record) (GeneID 10178794) | DRSC22549 | – | 7.92e5 | 8.25e5 | 3.74e5 | 1.20e5 | inactive |
| Spt (GeneID 35889) | DRSC07123 | – | 3479 | 8135 | 506 | 3578 | inactive |
| CG11583 (GeneID 326206) | DRSC08202 | – | 9143 | – | 3212 | – | inactive |
| Sin1 (GeneID 36604) | DRSC05965 | – | 13211 | – | 3084 | – | inactive |
| GNBP-like3 (GeneID 37313) | DRSC06385 | – | 7132 | – | 2423 | – | inactive |
| firl (GeneID 34627) | DRSC02428 | – | 2784 | 6855 | 1351 | 2728 | inactive |
| 5PtaseI (GeneID 326119) | DRSC16269 | – | 2464 | 4970 | 1265 | 1546 | inactive |
| 5PtaseI (GeneID 326119) | DRSC22090 | – | 6.62e5 | 6.73e5 | 2.81e5 | 2.94e5 | inactive |
| CG32432 (GeneID 40310) | DRSC11703 | – | 18412 | – | 1589 | – | inactive |
| CG32432 (GeneID 40310) | DRSC11704 | Wg reporter activity raised | 14150 | – | 1676 | – | active |
| CG32432 (GeneID 40310) | DRSC11744 | – | 17223 | – | 5280 | – | inactive |

An excerpt from above, reduced to “firefly reporter light, replicate 1”:
mRpL46 (GeneID 38230) [DRSC08391]	6720
Pgant9 (GeneID 246627) [DRSC05621]	19440
Pgant9 (GeneID 246627) [DRSC06584]	9288
Pgant9 (GeneID 246627) [DRSC07185]	10199
Pgant9 (GeneID 246627) [DRSC07186]	11148
Pgant9 (GeneID 246627) [DRSC07187]	9412
Pgant9 (GeneID 246627) [DRSC07189]	7512
Pgant9 (GeneID 246627) [DRSC21807]	6.76e5
Pgant9 (GeneID 246627) [DRSC22076]	9.49e5
Noa36 (GeneID 43384) [DRSC16761]	1720
thoc7 (GeneID 38033) [DRSC08512]	10242
CG10005 (GeneID 41451) [DRSC14172]	15872
